Experimental data taken from publication PMC11079001.
Where a chain is given by its changes, count along the chain named. Results are given in words; binding and its absence hold for the method and conditions named. In cells and extracts the contact can be indirect. Some binding calls cover weakened binding; strength is not graded here. Sequences can lack the tags named with a protein.

Chains of the proteins cited; added tags and fusions are not shown.
UniProt P52286: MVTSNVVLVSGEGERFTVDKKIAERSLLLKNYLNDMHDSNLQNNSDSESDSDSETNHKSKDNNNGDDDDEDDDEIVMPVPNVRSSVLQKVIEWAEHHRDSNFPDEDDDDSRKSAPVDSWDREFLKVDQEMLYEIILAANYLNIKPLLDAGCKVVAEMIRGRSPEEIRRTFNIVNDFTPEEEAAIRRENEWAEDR

How the values were obtained:
Assay in all cases: co-IP; 12xMyc-Met30 variants immunoprecipitated on MYC-trap beads from 1 mg native yeast whole cell lysate (Triton X-100 buffer: 50 mM HEPES pH 7.5, 0.2% Triton X-100, 200 mM NaCl), overnight at 4 °C; co-precipitated Skp1 by western blot; cells untreated or treated with 100 µM CdCl2 (time courses); also H2O2 or zinc pre-treatment
[1] = molecular target: T1, 12xMyc-Met30 C211S (S. cerevisiae) (UniProt P39014)
T1 sequence: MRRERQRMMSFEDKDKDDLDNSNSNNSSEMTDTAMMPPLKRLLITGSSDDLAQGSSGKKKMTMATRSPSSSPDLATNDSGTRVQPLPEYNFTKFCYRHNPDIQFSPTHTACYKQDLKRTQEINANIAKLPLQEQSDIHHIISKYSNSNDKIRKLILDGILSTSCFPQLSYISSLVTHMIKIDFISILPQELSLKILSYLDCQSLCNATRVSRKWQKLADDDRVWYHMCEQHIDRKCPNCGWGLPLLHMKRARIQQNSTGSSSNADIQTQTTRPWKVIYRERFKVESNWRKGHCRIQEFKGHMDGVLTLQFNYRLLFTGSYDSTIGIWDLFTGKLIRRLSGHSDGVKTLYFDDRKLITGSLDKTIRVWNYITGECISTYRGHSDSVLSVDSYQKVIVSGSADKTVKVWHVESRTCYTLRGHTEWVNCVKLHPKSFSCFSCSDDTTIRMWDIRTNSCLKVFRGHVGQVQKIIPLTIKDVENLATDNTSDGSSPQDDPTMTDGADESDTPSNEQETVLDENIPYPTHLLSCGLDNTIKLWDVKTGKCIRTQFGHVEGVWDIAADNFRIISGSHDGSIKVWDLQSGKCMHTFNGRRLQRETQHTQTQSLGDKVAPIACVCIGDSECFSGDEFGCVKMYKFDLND

[2] = molecular target: T2, 12xMyc-Met30 wild type (S. cerevisiae) (UniProt P39014)
T2 sequence: T1 sequence with S211C

[3] = molecular target: T3, 12xMyc-Met30 ∆1–113 (S. cerevisiae) (UniProt P39014)
T3 sequence: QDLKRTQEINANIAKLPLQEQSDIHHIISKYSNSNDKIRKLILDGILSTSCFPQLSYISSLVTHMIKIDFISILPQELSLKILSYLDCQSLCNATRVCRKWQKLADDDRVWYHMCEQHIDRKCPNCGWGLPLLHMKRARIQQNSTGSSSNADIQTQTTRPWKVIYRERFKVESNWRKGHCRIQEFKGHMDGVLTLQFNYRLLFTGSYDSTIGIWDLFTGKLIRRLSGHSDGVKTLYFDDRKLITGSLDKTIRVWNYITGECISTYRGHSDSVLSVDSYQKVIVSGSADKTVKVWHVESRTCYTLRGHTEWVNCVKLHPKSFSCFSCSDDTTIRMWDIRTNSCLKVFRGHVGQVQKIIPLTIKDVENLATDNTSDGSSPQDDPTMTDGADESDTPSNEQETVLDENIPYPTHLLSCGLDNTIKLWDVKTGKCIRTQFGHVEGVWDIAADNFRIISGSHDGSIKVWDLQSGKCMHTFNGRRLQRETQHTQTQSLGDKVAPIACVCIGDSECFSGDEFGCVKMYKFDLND

Measured: binding

Skp1 (from UniProt P52286 1-194)
binds: all assays above
